Drawing on PubChem BioAssay AID192 (DTP/NCI, 2004), this text covers T/C and survivor count for eleven compounds.

In this assay the test system is BDF1 mice, B16 melanoma ip, median survival T/C. Put plainly: NCI In Vivo Anticancer Drug Screen. Data for tumor model B16 Melanoma (intraperitoneal) in B6D2F1 (BDF1) mice. The note with it: T/C endpoint: median survival time, higher T/C = longer survival. The method in brief: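 Vehicle-treated animals serve as the reference (C); treated animals (T) are scored for survival or tumor size after tumor transplantation.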

Where [1] appears, read: dose: 200.0 mg/kg/injection, schedule: Q01DX009 (ip), vehicle: saline.
[2] abbreviates: dose: 100.0 mg/kg/injection, schedule: Q01DX009 (ip), vehicle: Klucel (hydroxypropylcellulose) (HPC).
The mark [3] stands for this setting: dose: 200.0 mg/kg/injection, schedule: Q01DX009 (ip), vehicle: Klucel (hydroxypropylcellulose) (HPC).
The mark [4] stands for this setting: dose: 400.0 mg/kg/injection, schedule: Q01DX009 (ip), vehicle: Klucel (hydroxypropylcellulose) (HPC).
The mark [5] stands for this setting: dose: 400.0 mg/kg/injection, schedule: Q01DX009 (ip), vehicle: saline.
The mark [6] stands for this setting: dose: 150.0 mg/kg/injection, schedule: Q01DX009 (ip), vehicle: saline.
[7] abbreviates: dose: 300.0 mg/kg/injection, schedule: Q01DX009 (ip), vehicle: saline.

The list does not hold the whole screen: it gathers tests that were run many times, whatever their T/C, doses with no T/C, and many T/C values between a quarter and a half above the control. Further doses and runs are listed elsewhere. T/C is the treated group as % of the vehicle group. Some doses have a count of surviving animals in place of a T/C: the source files T/C as zero there, which appears to mark a toxic dose or a test without result, not a measured value. Some doses without a T/C left all or most animals alive at the check, yet need not have been tolerated: the source hardly ever lists a survival T/C far under the control, and the zero likely stands for such cases as well. Counts of survivors are from the toxicity check (mostly the fifth day) where no day follows; animals may have died later. Schedules are NCI's codes, taken here to give the interval after Q, in days (D) or hours (H), and the number of doses after X. Some entries were tested several times; their values stand side by side, smallest first. Where survival is the endpoint, this PubChem deposit counts one and a half times the control or more as active, and values a quarter to a half above the control carry no call in these data; other NCI protocols may use other cut-offs. Some T/C values carry the count of animals alive at the toxicity check (mostly the fifth day); where none is given, no animal had died by that day.

As for `CCCCCCCC(=O)OCC(=O)[C@]1(O)Cc2c(O)c3c(c(O)c2[C@@H](OC2CC(N)C(O)C(C)O2)C1)C(=O)c1c(OC)cccc1C3=O` (some centres not stated), the T/C is, setting by setting: (dose: 0.25 mg/kg/injection, schedule: Q01DX009 (ip), vehicle: saline with Tween-80) 145 % of control; (dose: 0.31 mg/kg/injection, schedule: Q01DX001 (ip), vehicle: water) 136 % of control; (dose: 0.5 mg/kg/injection, schedule: Q01DX009 (ip), vehicle: saline with Tween-80) 136 % of control; (dose: 0.63 mg/kg/injection, schedule: Q01DX001 (ip), vehicle: water) 143 % of control; (dose: 5.0 mg/kg/injection, schedule: Q01DX001 (ip), vehicle: water) 127 % of control; (dose: 10.0 mg/kg/injection, schedule: Q01DX001 (ip), vehicle: water, evaluated on day 45) 129 % of control. The T/C was 134 % of control (dose: 10.0 mg/kg/injection, schedule: Q01DX001 (ip), vehicle: water, evaluated on day 60) and 126 % of control (dose: 864.0 micrograms/kg/injection, schedule: Q01DX004 (ip), vehicle: other). Also, the survivor count was 10 of 10 (dose: 4.0 mg/kg/injection, schedule: Q01DX009 (ip), vehicle: saline with Tween-80); 10 of 10 (dose: 8.0 mg/kg/injection, schedule: Q01DX009 (ip), vehicle: saline with Tween-80); 10 of 10 (dose: 20.0 mg/kg/injection, schedule: Q01DX001 (ip), vehicle: water); 4 of 10 and 9 of 10 (dose: 40.0 mg/kg/injection, schedule: Q01DX001 (ip), vehicle: water); 10 of 10 (dose: 6670.0 micrograms/kg/injection, schedule: Q01DX004 (ip), vehicle: other).

On to `Oc1c(CNCCCN2CCCC2)cc(Cl)c2cccnc12`, for which the survivor count under setting [1] is 0 of 10 and 3 of 10.

As for `Oc1ccccc1C(Nc1nc2ccccc2s1)c1ccc2cccnc2c1O` (configuration not stated), the T/C under setting [2] was 126 % of control; the T/C under setting [3] is 129 [9 of 10 alive] and 141 % of control; the T/C under setting [4] was 131 and 147 % of control. Moreover, the survivor count (dose: 300.0 mg/kg/injection, schedule: Q01DX009 (ip), vehicle: Klucel (hydroxypropylcellulose) (HPC)) is listed as 10 of 10.

For the compound `CNCCN(C)CCN(C)Cc1ccc(OC)cc1`, the survivor count under setting [5] is on record as 3 of 10.

For the compound `COCCOCCN1CCN(CCCN2c3ccccc3Sc3ccc(C(F)(F)F)cc32)CC1`, the survivor count is reported as 9 of 10 (dose: 5.0 mg/kg/injection, schedule: Q01DX009 (ip), vehicle: saline); 10 of 10 (dose: 10.0 mg/kg/injection, schedule: Q01DX009 (ip), vehicle: saline); 9 of 10 (dose: 20.0 mg/kg/injection, schedule: Q01DX009 (ip), vehicle: saline).

Consider `CCNC(C)(C)C(SSS)c1ccco1` (configuration not stated), for which the survivor count under setting [2] is 8 of 10.

On to `CN(C)c1ccc2cc(S(=O)(=O)O)cc(O)c2c1`, for which the survivor count (dose: 400.0 mg/kg/injection, schedule: Q01DX009 (ip), vehicle: saline with Tween-80) is 6 of 6.

Consider `OC(CCl)CN1CC[N+]2(CC1)CC[N+]1(CCN(CC(O)CCl)CC1)CC2` (configuration not stated), for which the T/C (dose: 13.0 mg/kg/injection, schedule: Q01DX009 (ip), vehicle: water) was 126 % of control; the T/C (dose: 19.0 mg/kg/injection, schedule: Q01DX009 (ip), vehicle: water) was 125 % of control; the T/C (dose: 29.0 mg/kg/injection, schedule: Q01DX009 (ip), vehicle: water) was 130 % of control; the T/C (dose: 32.0 mg/kg/injection, schedule: Q01DX009 (ip), vehicle: water) is 127 % of control; the T/C (dose: 32.0 mg/kg/injection, schedule: Q03HX016 (ip), vehicle: water) was 128 % of control; the T/C (dose: 32.0 mg/kg/injection, schedule: Q03HX024 (ip), vehicle: water) is 141 % of control. The T/C (dose: 37.5 mg/kg/injection, schedule: Q01DX009 (ip), vehicle: water) was 133 % of control; the T/C (dose: 44.0 mg/kg/injection, schedule: Q01DX009 (ip), vehicle: water) is 136 % of control; the T/C (dose: 50.0 mg/kg/injection, schedule: Q01DX009 (ip), vehicle: saline) is 126 % of control; the T/C (dose: 64.0 mg/kg/injection, schedule: Q01DX009 (ip), vehicle: water) was 139 % of control; the T/C (dose: 64.0 mg/kg/injection, schedule: Q03HX008 (ip), vehicle: water) is 131 % of control; the T/C (dose: 64.0 mg/kg/injection, schedule: Q03HX016 (ip), vehicle: water) is 145 % of control. For the same compound, the T/C is 131 % of control (dose: 64.0 mg/kg/injection, schedule: Q03HX024 (ip), vehicle: water); 126 % of control [9 of 10 alive] (dose: 66.0 mg/kg/injection, schedule: Q01DX009 (ip), vehicle: saline); 145 % of control (dose: 75.0 mg/kg/injection, schedule: Q01DX009 (ip), vehicle: water); 127 and 128 % of control (dose: 100.0 mg/kg/injection, schedule: Q01DX009 (ip), vehicle: saline); 145 % of control (dose: 128.0 mg/kg/injection, schedule: Q01DX009 (ip), vehicle: water); 139 % of control (dose: 128.0 mg/kg/injection, schedule: Q03HX008 (ip), vehicle: water). In addition, the T/C is 145 % of control (dose: 128.0 mg/kg/injection, schedule: Q03HX016 (ip), vehicle: water); 135 % of control under setting [6]; 143 % of control under setting [1]; 134 % of control (dose: 225.0 mg/kg/injection, schedule: Q01DX009 (ip), vehicle: saline); 137 % of control (dose: 256.0 mg/kg/injection, schedule: Q01DX009 (ip), vehicle: water); 143 % of control under setting [5]. Besides, the survivor count reads like this: (dose: 37.5 mg/kg/injection, schedule: Q01DX009 (ip), vehicle: saline) 10 of 10; (dose: 75.0 mg/kg/injection, schedule: Q01DX009 (ip), vehicle: saline) 9 of 10; under setting [6], 9 of 10; (dose: 225.0 mg/kg/injection, schedule: Q01DX009 (ip), vehicle: water) 10 of 10; (dose: 256.0 mg/kg/injection, schedule: Q03HX008 (ip), vehicle: water) 1 of 10; under setting [7], 0 of 10. The survivor count (dose: 300.0 mg/kg/injection, schedule: Q01DX009 (ip), vehicle: water) is listed as 6 of 6.

For `C[CH2][Sn]([CH2]C)([CH2]C)[O]C(=O)CO`, the survivor count runs as follows: (dose: 6.25 mg/kg/injection, schedule: Q01DX009 (ip), vehicle: saline) 10 of 10; (dose: 12.5 mg/kg/injection, schedule: Q01DX009 (ip), vehicle: saline) 0 of 10; (dose: 25.0 mg/kg/injection, schedule: Q01DX009 (ip), vehicle: saline) 0 of 10.

For `CCCCN(CCCC)CCCC#N`, the survivor count under setting [7] is given as 6 of 10.

For `O=C1OC(c2ccc([N+](=O)[O-])cc2)=N/C1=C\c1ccc(Cl)cc1`, the survivor count was 10 of 10 under setting [2], 10 of 10 under setting [3] and 10 of 10 under setting [4].
